# Out of some 580,000 compounds screened, about 6,100 (1.1%) were called active. The shares of active, inactive and inconclusive entries below differ from those in the screen. Calls follow the shape of the dose curve; as a rule, active = well fitted inhibition curve with a large enough effect; inconclusive = small, poorly fitted or top-dose-only effect, or another doubt; inactive = no such curve, though single readings can be large or run the other way. Where the call is inconclusive, the potency comes from a doubtful curve fit.
# Amino acid sequences for entries named in this document (tags omitted). A change or cut given only in a name is not applied to a line headed by its entry.
# UniProt P18054: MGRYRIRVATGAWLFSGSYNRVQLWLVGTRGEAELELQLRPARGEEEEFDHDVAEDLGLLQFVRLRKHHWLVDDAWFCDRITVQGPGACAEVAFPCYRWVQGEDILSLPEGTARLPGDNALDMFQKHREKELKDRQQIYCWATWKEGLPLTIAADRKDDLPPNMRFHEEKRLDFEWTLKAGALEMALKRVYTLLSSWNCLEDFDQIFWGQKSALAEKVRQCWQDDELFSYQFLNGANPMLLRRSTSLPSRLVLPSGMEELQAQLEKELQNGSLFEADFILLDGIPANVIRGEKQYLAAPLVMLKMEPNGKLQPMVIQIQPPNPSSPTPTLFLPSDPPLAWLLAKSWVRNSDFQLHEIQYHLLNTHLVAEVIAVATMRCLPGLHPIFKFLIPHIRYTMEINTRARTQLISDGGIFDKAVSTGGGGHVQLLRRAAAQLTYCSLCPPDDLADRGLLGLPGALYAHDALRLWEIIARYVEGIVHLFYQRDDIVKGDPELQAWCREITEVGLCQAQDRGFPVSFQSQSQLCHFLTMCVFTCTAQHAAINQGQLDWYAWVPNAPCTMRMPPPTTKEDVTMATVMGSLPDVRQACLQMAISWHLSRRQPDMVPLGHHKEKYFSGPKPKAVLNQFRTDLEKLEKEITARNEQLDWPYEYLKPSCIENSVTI
# Biological target: Polyunsaturated fatty acid lipoxygenase ALOX12 (Homo sapiens) (UniProt P18054)
# Assay: Primary qHTS assay for inhibitors of human arachidonate 12S-lipoxygenase (ALOX12): Round 2
# Settings: purified 12hLO, xylenol orange hydroperoxide absorbance; activity change, negative = inhibition: at 108 µM (top of the series) unless noted
# Method in brief: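 Purified human 12hLO (150 nM final) in 25 mM Hepes, 0.01% Triton X-100, pH 7.0 was preincubated 15 min at room temperature with compound. Then 40 uM arachidonic acid was added, 30 min. Hydroperoxide was read by Fe-XO absorbance ratio 573/405 nm.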
# % is scaled to controls: 0 for no effect and ±100 for the full control effect; potency is read from the fitted curve at half-maximal effect.
SMILES,Potency,"activity change, negative = inhibition"
Cc1cc(NC(=O)c2cccnc2)cc(-c2nc3cc(C(C)C)ccc3o2)c1O,inactive,–
Cc1ccc2[nH]cc(C(C(=O)O)N3CCN(Cc4cccc(Cl)c4)CC3)c2c1 (stereo not given),"inconclusive: 50.1 µM [inhibitor, partial curve, poor fit]",–
CNC(=O)CCn1ncc2cc(OCc3ccccc3-c3ccccc3C)ccc21,"inconclusive: 112 µM [inhibitor, partial curve, poor fit]",–
Cc1ccc(NS(=O)(=O)c2ccccc2)c(NS(=O)(=O)c2ccccc2)c1,"inconclusive: 50.1 µM [inhibitor, partial curve, poor fit]",–
O=C(NCc1ccccc1Cl)c1ccc2c(c1)NC(=O)C(CS(=O)(=O)Cc1ccc(F)cc1Cl)N2 (stereo not given),–,inconclusive: -42.4% [inhibitor]
COc1cc(CN2CCCN(C)CC2)cc([N+](=O)[O-])c1O,"inconclusive: 3.16 µM [inhibitor, full curve, poor fit]",–
O=C(O)COCC(=O)N1CC[C@H]2COC(=O)N2c2cc(F)ccc2C1,"inconclusive: 4.47 µM [inhibitor, full curve]",–
Cc1ccc(/C=N\NC(=O)c2cccnc2)s1,inactive,–
CN(CC1CCOC1)S(=O)(=O)c1cccc(F)c1 (stereo not given),inactive,–
CCN(Cc1ccc(OC)c(F)c1)C(=O)c1cc2ccccc2o1,"inconclusive: 112 µM [inhibitor, partial curve, poor fit]",–
Cc1cc(C)c2c(n1)nn1c(NCCN3CCOCC3)cc(C)nc21,inactive,–
Cc1c(Cl)ccc2sc(N3CCN(C(=O)C(C)C)CC3)nc12,"inconclusive: 100 µM [inhibitor, single point]",–
Cc1cccc(-n2ncc3c2CCCC3NC(=O)c2cccs2)c1C (stereo not given),inactive,–
Cc1[nH]c2ccccc2c1C(=O)COC(=O)Cc1c[nH]c2ccccc12,"inconclusive: 100 µM [inhibitor, single point]",–
S=C(NCCc1ccccc1)Nc1ccc(NC(=S)NCCc2ccccc2)c(Cl)c1,"inconclusive: 31.6 µM [inhibitor, partial curve, poor fit]",–
O=C(/C=C/c1ccco1)NCCC1=CCCCC1,"inconclusive: 31.6 µM [inhibitor, partial curve, poor fit]",–
COc1cc(OC)c(NC(=O)C2CCN(S(=O)(=O)c3c(C)noc3/C=C/c3c(C)cc(C)cc3C)CC2)cc1Cl,inactive,–
CC(C)(C)c1nc(C(=O)NCCc2ccc(Cl)cc2)n2ccncc12,–,inactive: 1.43% [at 6.33 µM]
COc1ccc(OC)c(NC(=O)CSc2ccc(-c3cccs3)nn2)c1,"inconclusive: 44.7 µM [inhibitor, partial curve, poor fit]",–
CCOC(=O)C1CCCCN1Cc1ccc(-c2ccccc2)cc1 (stereo not given),"inconclusive: 1.78 µM [inhibitor, full curve]",–
CNC(=O)c1[nH]cnc1C(=O)N[C@@H](C)C(=O)OC(C)(C)C,"inconclusive: 35.5 µM [inhibitor, single point]",–
N#CC(=Nc1cccc(F)c1)C1=C(O)c2ccccc2C1=O,inactive,–

SMILES,Potency,"activity change, negative = inhibition"
Cc1ccc(Cn2c(C(=O)O)c(CNCc3ccc(OC(C)C)cc3)c3ccc(C)cc32)cc1,"inconclusive: 44.7 µM [inhibitor, partial curve, poor fit]",–
CC(=O)c1cccc(NC(=O)c2ccc3c(c2)OCO3)c1,inactive,–
O=[N+]([O-])c1cc2c(cc1/C=N/n1c(-c3ccccc3)n[nH]c1=S)OCO2,"inconclusive: 1.78 µM [inhibitor, full curve, poor fit]",–
C/C(=N\NC(=O)c1ccncc1)c1ccc(N(C)C)cc1,"inconclusive: 28.2 µM [inhibitor, partial curve, poor fit]",–
CCN1CCN(S(=O)(=O)c2ccc(Cl)c(C(=O)N(C)Cc3ccco3)c2)CC1,"inconclusive: 50.1 µM [inhibitor, partial curve, poor fit]",–
CN(Cc1ccccc1)C(=O)c1cn(C)c2ccc(S(=O)(=O)N3CCCCC3)cc2c1=O,"inconclusive: 50.1 µM [inhibitor, partial curve, poor fit]",–
Cc1cc(OCCCCCn2ccnc2)cc(C)c1Cl,"inconclusive: 50.1 µM [inhibitor, partial curve, poor fit]",–
CC1CCCCN1C(=O)Nc1cccc(Cl)c1 (stereo not given),inactive,–
O=[N+]([O-])c1ccccc1/C=N/NS(=O)(=O)c1ccccc1,"inconclusive: 39.8 µM [inhibitor, partial curve, poor fit]",–
COc1ccc(CC(=O)NCC2CCCN(Cc3cccc(C(F)(F)F)c3)C2)cc1 (stereo not given),inactive,–
O=C(CCCOc1ccc(Cl)cc1Cl)n1nnc2ccccc21,"inconclusive: 35.5 µM [inhibitor, partial curve]",–
COc1ccc2[nH]cc(CCNC(C)=O)c2c1,"inconclusive: 35.5 µM [inhibitor, single point]",–
CC(CCc1ccccc1)NC(=O)C1(c2ccccc2)CCCC1 (stereo not given),inactive,–
O=C(O)c1ccc(NC(=O)c2cccs2)cc1,"inconclusive: 35.5 µM [inhibitor, single point]",–
CN(C)c1cccc(CNc2nccc3[nH]c(-c4cccc(F)c4)nc23)c1,"inconclusive: 112 µM [inhibitor, single point]",–
Cn1c(=O)[nH]c(=O)c2c1nc(SCCc1ccccc1)n2CC(O)COc1ccccc1 (stereo not given),"inconclusive: 22.4 µM [inhibitor, full curve, poor fit]",–
CCn1c(CNC(=O)c2ccccc2F)nnc1SCC(=O)N1CCc2ccccc21,inactive,–
COc1cc(CN2CCC(C(=O)NC(C)(C)C)CC2)ccc1OCc1ccccc1,"inconclusive: 6.31 µM [inhibitor, full curve]",–
O=C(CSc1ncn(-c2ccccc2)n1)Nc1ccc(Br)cn1,"inconclusive: 3.55 µM [inhibitor, full curve, poor fit]",–
CC1(C)OC2CC(=O)OCC23C1CC(=O)C1(C)C3CCC2(C)C(c3ccoc3)OC(=O)C3OC321 (stereo not given),inactive,–
Cn1cc(-c2cc3n(n2)CCC(=O)N3CCCC(=O)NCc2ccc(Cl)cc2)c2ccccc21,inactive,–
CCC(C(=O)NC1CCCCCC1)c1ccccc1 (stereo not given),"inconclusive: 126 µM [inhibitor, partial curve, poor fit]",–

SMILES,Potency,"activity change, negative = inhibition"
CC1=C(c2ccc(Cl)cc2)S(=O)(=O)NC1=NCCCN1CCN(c2cc(C)ccc2C)CC1,"inconclusive: 25.1 µM [inhibitor, partial curve, poor fit]",–
COc1cc(NC(=O)c2ccc3ccccc3n2)cc(OC)c1OC,"inconclusive: 5.62 µM [inhibitor, single point]",–
CCN(CC)Cc1c(C)[nH]c2ccc(NC(C)=O)cc2c1=O,inactive,–
Cc1nc2cc(NC(C)C(=O)Nc3cccc(Cl)c3)ccc2o1 (stereo not given),inactive,–
O=C(COC(=O)Cn1cc(C(F)(F)F)ccc1=O)Nc1ccccc1,"inconclusive: 112 µM [inhibitor, single point]",–
COc1ccc2nc(/N=C/c3cccc(OC)c3O)sc2c1,"inconclusive: 50.1 µM [inhibitor, partial curve, poor fit]",–
Cc1cccc(N/N=C/c2ccc(C)s2)c1,inactive,–
O=C(Nc1ccccc1)N1CC(=O)N2[C@@H](CO)[C@H](c3ccc(Br)cc3)[C@@H]2C1,"inconclusive: 112 µM [inhibitor, single point]",–
COc1cccc(/C=N/n2c(C3CCCCC3)n[nH]c2=S)c1,"inconclusive: 79.4 µM [inhibitor, partial curve, poor fit]",–
O=S(Cc1ccc(Cl)cc1)CC(O)COc1ccc(Cl)cc1 (stereo not given),"inconclusive: 39.8 µM [inhibitor, partial curve, poor fit]",–
S=C(Nc1ccccc1)N[C@H]1CO[C@H]2[C@@H]1OC[C@H]2OCc1ccccc1,"inconclusive: 79.4 µM [inhibitor, partial curve]",–
Cc1ccc(/C=C2\SC(=S)N(Cc3ccccc3)C2=O)o1,active: 44.7 µM,–
O=C(C[n+]1ccc(-c2cc(C(=O)Nc3cccc(C(F)(F)F)c3)c3ccccc3n2)cc1)c1cccc([N+](=O)[O-])c1,"inconclusive: 44.7 µM [inhibitor, partial curve, poor fit]",–
CCOc1ccc(NCc2cccn2-c2nnc(N3CCC(C(=O)NCC(C)c4ccccc4)CC3)s2)cc1 (stereo not given),inactive,–
Cc1ccccc1Oc1ccc2c(c1)[C@@H]1C[C@H]3[C@@H](C(=O)N1CC2)[C@H](C)ON3C,"inconclusive: 112 µM [inhibitor, single point]",–
Cc1ccc(O)c(Nc2nc(-c3ccccc3)nc3ccccc23)c1,"inconclusive: 35.5 µM [inhibitor, partial curve, poor fit]",–
COc1ccc(NC(=O)CN(C)C(=O)c2sc3ccccc3c2Cl)cc1,"inconclusive: 112 µM [inhibitor, partial curve, poor fit]",–
COc1cc(/C=N/NC(=O)c2cc(-c3cccc(Br)c3)nc3ccccc23)cc(OC)c1O,"inconclusive: 100 µM [inhibitor, single point]",–
O=C(O)CCc1ccc(-c2ccc(Cl)cc2)n1CCC(=O)O,"inconclusive: 39.8 µM [inhibitor, partial curve, poor fit]",–
COc1ccc(-c2ccc(CCC(=O)O)n2CC(C)C)cc1,"inconclusive: 44.7 µM [inhibitor, partial curve, poor fit]",–
COc1ccc(Nc2sc(C(=O)c3ccc(Cl)cc3)c(N)c2C(N)=O)cc1,"inconclusive: 31.6 µM [inhibitor, partial curve, poor fit]",–

# Single values from the entries so far.
# Potency with Cc1ccc2[nH]cc(C(C(=O)O)N3CCN(Cc4cccc(Cl)c4)CC3)c2c1 (stereo not given) reads inconclusive: 50.1 µM [inhibitor, partial curve, poor fit]
# Potency with COc1ccc(NC(=O)CN(C)C(=O)c2sc3ccccc3c2Cl)cc1 reads inconclusive: 112 µM [inhibitor, partial curve, poor fit]

# From PubChem BioAssay AID1671190 (National Center for Advancing Translational Sciences (NCATS), 2021)
